Data reported in paper PMC5342215.
These are yes or no findings as the source states them, for the method shown. In cells and extracts the contact can be indirect. Some binding calls cover weakened binding; strength is not graded here. Each block holds one molecule with its values, some of them ahead of it.

Protein sequences, listed by entry. Tags and fused reporters are not part of them.
UniProt P46109: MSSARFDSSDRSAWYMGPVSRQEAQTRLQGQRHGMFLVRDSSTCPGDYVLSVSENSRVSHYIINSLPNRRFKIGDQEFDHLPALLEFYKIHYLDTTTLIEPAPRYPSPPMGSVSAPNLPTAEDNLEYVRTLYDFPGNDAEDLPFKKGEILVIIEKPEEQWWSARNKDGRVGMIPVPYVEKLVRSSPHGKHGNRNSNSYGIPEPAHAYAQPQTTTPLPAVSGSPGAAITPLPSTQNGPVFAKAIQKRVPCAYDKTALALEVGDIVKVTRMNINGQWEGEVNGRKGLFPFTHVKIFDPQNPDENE
UniProt P62993: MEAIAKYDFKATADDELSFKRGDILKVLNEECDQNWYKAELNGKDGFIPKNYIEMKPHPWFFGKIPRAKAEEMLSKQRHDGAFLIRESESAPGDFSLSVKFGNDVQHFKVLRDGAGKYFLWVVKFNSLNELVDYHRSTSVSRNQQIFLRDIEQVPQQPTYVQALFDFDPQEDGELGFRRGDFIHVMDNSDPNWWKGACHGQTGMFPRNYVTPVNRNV

Tests used:
[1] = biological target: T1, RapGEF1 (human (endogenous in primary CD4+ T cells)) (UniProt Q13905); test: co-IP; anti-RapGEF1 antibody (or isotype control) on Protein G Dynabeads; lysate of primary human resting CD4+ T cells in Triton lysis buffer (10mM HEPES, 2mM MgCl2, 10mM KCl, 0.5mM EDTA, 150mM NaCl, 0.5% Triton), 4h at 4°C; cells stimulated with 50ng/ml PMA if indicated; western blot
T1 sequence: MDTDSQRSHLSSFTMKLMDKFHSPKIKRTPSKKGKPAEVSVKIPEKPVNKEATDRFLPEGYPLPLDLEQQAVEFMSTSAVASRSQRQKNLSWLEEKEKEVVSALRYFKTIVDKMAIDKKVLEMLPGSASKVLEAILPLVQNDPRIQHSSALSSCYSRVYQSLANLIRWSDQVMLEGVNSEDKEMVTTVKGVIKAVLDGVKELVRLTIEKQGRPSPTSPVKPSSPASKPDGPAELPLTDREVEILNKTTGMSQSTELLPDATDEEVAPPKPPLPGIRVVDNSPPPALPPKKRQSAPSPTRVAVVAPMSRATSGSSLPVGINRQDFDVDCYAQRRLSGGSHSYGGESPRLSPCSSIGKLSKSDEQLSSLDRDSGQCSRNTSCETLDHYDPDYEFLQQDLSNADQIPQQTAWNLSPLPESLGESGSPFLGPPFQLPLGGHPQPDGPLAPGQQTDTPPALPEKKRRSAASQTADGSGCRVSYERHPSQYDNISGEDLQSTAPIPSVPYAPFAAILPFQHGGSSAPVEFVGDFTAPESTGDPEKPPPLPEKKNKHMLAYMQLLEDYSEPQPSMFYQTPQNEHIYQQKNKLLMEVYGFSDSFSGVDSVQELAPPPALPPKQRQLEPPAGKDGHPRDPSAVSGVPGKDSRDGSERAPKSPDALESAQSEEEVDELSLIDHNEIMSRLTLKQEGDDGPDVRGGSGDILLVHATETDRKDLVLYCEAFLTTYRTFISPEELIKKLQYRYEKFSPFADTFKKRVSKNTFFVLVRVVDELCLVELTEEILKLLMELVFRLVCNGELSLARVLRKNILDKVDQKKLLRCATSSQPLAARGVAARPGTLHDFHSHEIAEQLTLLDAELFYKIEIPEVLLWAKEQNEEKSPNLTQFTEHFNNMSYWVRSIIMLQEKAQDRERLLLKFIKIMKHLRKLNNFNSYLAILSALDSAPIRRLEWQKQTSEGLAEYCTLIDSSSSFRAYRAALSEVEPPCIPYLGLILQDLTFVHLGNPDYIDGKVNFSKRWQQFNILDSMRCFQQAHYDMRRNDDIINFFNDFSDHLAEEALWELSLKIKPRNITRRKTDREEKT

[2] = biological target: T2, dynamin2 (human (endogenous in primary CD4+ T cells)) (UniProt P50570); test: co-IP; anti-dynamin2 antibody (or isotype control) on Protein G Dynabeads; lysate of primary human resting CD4+ T cells in Triton lysis buffer (10mM HEPES, 2mM MgCl2, 10mM KCl, 0.5mM EDTA, 150mM NaCl, 0.5% Triton), 4h at 4°C; cells stimulated with 50ng/ml PMA if indicated; western blot
T2 sequence: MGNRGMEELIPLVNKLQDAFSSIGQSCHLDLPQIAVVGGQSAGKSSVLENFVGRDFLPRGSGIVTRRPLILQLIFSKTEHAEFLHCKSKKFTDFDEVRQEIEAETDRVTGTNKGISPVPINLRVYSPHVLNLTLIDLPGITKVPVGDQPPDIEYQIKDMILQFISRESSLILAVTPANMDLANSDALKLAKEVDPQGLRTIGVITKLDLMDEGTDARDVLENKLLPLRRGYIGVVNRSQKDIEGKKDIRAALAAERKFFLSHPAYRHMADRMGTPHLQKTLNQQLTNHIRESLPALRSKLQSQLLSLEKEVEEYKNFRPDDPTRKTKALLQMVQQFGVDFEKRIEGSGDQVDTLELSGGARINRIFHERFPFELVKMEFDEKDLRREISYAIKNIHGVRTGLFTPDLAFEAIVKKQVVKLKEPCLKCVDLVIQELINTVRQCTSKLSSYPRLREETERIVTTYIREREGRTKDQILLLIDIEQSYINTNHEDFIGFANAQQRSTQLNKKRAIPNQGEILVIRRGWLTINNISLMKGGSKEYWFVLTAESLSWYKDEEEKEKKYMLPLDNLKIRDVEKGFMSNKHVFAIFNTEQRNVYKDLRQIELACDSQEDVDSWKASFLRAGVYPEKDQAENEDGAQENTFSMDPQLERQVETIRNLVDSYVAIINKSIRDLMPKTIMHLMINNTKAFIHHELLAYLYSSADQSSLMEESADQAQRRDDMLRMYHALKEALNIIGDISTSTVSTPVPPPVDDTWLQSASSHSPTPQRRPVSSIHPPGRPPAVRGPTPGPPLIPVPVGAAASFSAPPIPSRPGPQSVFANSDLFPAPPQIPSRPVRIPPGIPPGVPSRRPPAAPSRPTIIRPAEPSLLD

- binding [1]: binds
Molecule: CRK-L (from UniProt P46109 1-303)

- binding [1]: binds
Molecule: Grb2 (from UniProt P62993 1-217)

- binding [2]: binds
B1: vav1 (protein, UniProt P15498 1-845)
chain: MELWRQCTHWLIQCRVLPPSHRVTWDGAQVCELAQALRDGVLLCQLLNNLLPHAINLREVNLRPQMSQFLCLKNIRTFLSTCCEKFGLKRSELFEAFDLFDVQDFGKVIYTLSALSWTPIAQNRGIMPFPTEEESVGDEDIYSGLSDQIDDTVEEDEDLYDCVENEEAEGDEIYEDLMRSEPVSMPPKMTEYDKRCCCLREIQQTEEKYTDTLGSIQQHFLKPLQRFLKPQDIEIIFINIEDLLRVHTHFLKEMKEALGTPGAANLYQVFIKYKERFLVYGRYCSQVESASKHLDRVAAAREDVQMKLEECSQRANNGRFTLRDLLMVPMQRVLKYHLLLQELVKHTQEAMEKENLRLALDAMRDLAQCVNEVKRDNETLRQITNFQLSIENLDQSLAHYGRPKIDGELKITSVERRSKMDRYAFLLDKALLICKRRGDSYDLKDFVNLHSFQVRDDSSGDRDNKKWSHMFLLIEDQGAQGYELFFKTRELKKKWMEQFEMAISNIYPENATANGHDFQMFSFEETTSCKACQMLLRGTFYQGYRCHRCRASAHKECLGRVPPCGRHGQDFPGTMKKDKLHRRAQDKKRNELGLPKMEVFQEYYGLPPPPGAIGPFLRLNPGDIVELTKAEAEQNWWEGRNTSTNEIGWFPCNRVKPYVHGPPQDLSVHLWYAGPMERAGAESILANRSDGTFLVRQRVKDAAEFAISIKYNVEVKHIKIMTAEGLYRITEKKAFRGLTELVEFYQQNSLKDCFKSLDTTLQFPFKEPEKRTISRPAVGSTKYFGTAKARYDFCARDRSELSLKEGDIIKILNKKGQQGWWRGEIYGRVGWFPANYVEEDYSEYC
